# Results reported in the supplement of paper PMC8728848.
# This is one part of the list.
# B1: SfaEH (Escherichia coli), Q1RDG5 (protein)
# chain: LLCRNNQTGQVFNSGDTSFRVNVSPVVQYDKSISVLDLSQLVSCQNEDSTGQNYDYLKILKGSGFSPALDTKTYGRLDFTSRPTGYARQLPLQFDLQVTEAFYQYGVWKPFPAKLYLYPAPGVFGKVINNGDLLATLYVNKFSTKGQEAGERNFTWRFYATNDVYIQTGTCRVSSNNVKVDLPSYPGGPVTVPLTVRCDQTQSVSYTLSGPVTGSGNTVFANTAASGSGGVGIQLSDNVGPVPAGQPRSLGQVGSSPVSLGLKASYALTGQASPTPGAVQSVINVTFSYN
# How the values were obtained:
# Assay in all cases: glycan array binding signal (z-score within array); higher = stronger binding
# Conditions in all cases: glycan notation: IUPAC condensed, linker removed
# [1] = target: Fuc(a1-3)[Gal3S(b1-4)]GlcNAc6S
# Outline: (§1)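 Columns mapping to the same glycan were averaged after glycan names were converted to IUPAC-condensed notation. The data come from 3228 arrays in the Consortium for Functional Glycomics database, limited to those with an available protein sequence. Binding is reported as a within-array Z-score averaged across arrays of one protein sequence and across linkers.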
# [2] = target: Fuc(a1-3)[GalNAc(b1-4)]GlcNAc
# Outline: as §1
# [3] = target: Fuc(a1-3)[GalNAc(b1-4)]GlcNAc6S
# Outline: as §1
# Fuc(a1-4)GlcNAc = target: Fuc(a1-4)GlcNAc
# Outline: as §1
# Fuc(b1-3)GlcNAc = target: Fuc(b1-3)GlcNAc
# Outline: as §1
# Gal(a1-2)Gal = target: Gal(a1-2)Gal
# Outline: as §1
# Gal(a1-3)Gal = target: Gal(a1-3)Gal
# Outline: as §1
# Gal(a1-3)Gal(b1-3)GlcNAc = target: Gal(a1-3)Gal(b1-3)GlcNAc
# Outline: as §1
# [4] = target: Gal(a1-3)Gal(b1-3)GlcNAc(b1-2)Man
# Outline: as §1
# [5] = target: Gal(a1-3)Gal(b1-3)GlcNAc(b1-2)Man(a1-3)[Gal(a1-3)Gal(b1-3)GlcNAc(b1-2)Man(a1-6)]Man(b1-4)GlcNAc(b1-4)GlcNAc
# Outline: as §1
# [6] = target: Gal(a1-3)Gal(b1-3)GlcNAc(b1-3)GalNAc
# Outline: as §1
# [7] = target: Gal(a1-3)Gal(b1-3)GlcNAc(b1-6)GalNAc
# Outline: as §1
# [8] = target: Gal(a1-3)Gal(b1-3)[Fuc(a1-4)]GlcNAc(b1-2)Man(a1-3)[Gal(a1-3)Gal(b1-3)[Fuc(a1-4)]GlcNAc(b1-2)Man(a1-6)]Man(b1-4)GlcNAc(b1-4)GlcNAc
# Outline: as §1
# Gal(a1-3)Gal(b1-4)Glc = target: Gal(a1-3)Gal(b1-4)Glc
# Outline: as §1
# Gal(a1-3)Gal(b1-4)GlcNAc = target: Gal(a1-3)Gal(b1-4)GlcNAc
# Outline: as §1
# [9] = target: Gal(a1-3)Gal(b1-4)GlcNAc(b1-2)Man
# Outline: as §1
# [10] = target: Gal(a1-3)Gal(b1-4)GlcNAc(b1-2)Man(a1-3)[Gal(a1-3)Gal(b1-4)GlcNAc(b1-2)Man(a1-6)]Man(b1-4)GlcNAc(b1-4)GlcNAc
# Outline: as §1
# [11] = target: Gal(a1-3)Gal(b1-4)GlcNAc(b1-3)GalNAc
# Outline: as §1
# [12] = target: Gal(a1-3)Gal(b1-4)GlcNAc(b1-6)GalNAc
# Outline: as §1
# [13] = target: Gal(a1-3)Gal(b1-4)[Fuc(a1-3)]GlcNAc
# Outline: as §1
# [14] = target: Gal(a1-3)Gal(b1-4)[Fuc(a1-3)]GlcNAc(b1-2)Man(a1-3)[Gal(a1-3)Gal(b1-4)[Fuc(a1-3)]GlcNAc(b1-2)Man(a1-6)]Man(b1-4)GlcNAc(b1-4)GlcNAc
# Outline: as §1
# Gal(a1-3)GalNAc = target: Gal(a1-3)GalNAc
# Outline: as §1
# [15] = target: Gal(a1-3)[Gal(a1-4)]Gal(b1-4)GlcNAc
# Outline: as §1
# [16] = target: Gal(a1-4)Gal(b1-3)GlcNAc(b1-2)Man(a1-3)[Gal(a1-4)Gal(b1-3)GlcNAc(b1-2)Man(a1-6)]Man(b1-4)GlcNAc(b1-4)GlcNAc
# Outline: as §1
# Gal(a1-4)Gal(b1-4)Glc = target: Gal(a1-4)Gal(b1-4)Glc
# Outline: as §1
# Gal(a1-4)Gal(b1-4)GlcNAc = target: Gal(a1-4)Gal(b1-4)GlcNAc
# Outline: as §1
# [17] = target: Gal(a1-4)Gal(b1-4)GlcNAc(b1-2)Man(a1-3)[Gal(a1-4)Gal(b1-4)GlcNAc(b1-2)Man(a1-6)]Man(b1-4)GlcNAc(b1-4)GlcNAc
# Outline: as §1
# [18] = target: Gal(a1-4)Gal(b1-4)GlcNAc(b1-3)Gal(b1-4)Glc
# Outline: as §1
# Gal(a1-4)GlcNAc = target: Gal(a1-4)GlcNAc
# Outline: as §1
# Gal(a1-6)Glc = target: Gal(a1-6)Glc
# Outline: as §1
# Gal(b1-2)Gal = target: Gal(b1-2)Gal
# Outline: as §1
# Gal(b1-3)Gal = target: Gal(b1-3)Gal
# Outline: as §1
# Gal(b1-3)Gal(b1-4)GlcNAc = target: Gal(b1-3)Gal(b1-4)GlcNAc
# Outline: as §1
# Gal(b1-3)GalNAc = target: Gal(b1-3)GalNAc
# Outline: as §1
# [19] = target: Gal(b1-3)GalNAc(a1-3)[Fuc(a1-2)]Gal(b1-4)Glc
# Outline: as §1
# [20] = target: Gal(b1-3)GalNAc(a1-3)[Fuc(a1-2)]Gal(b1-4)GlcNAc
# Outline: as §1
# Gal(b1-3)GalNAc(b1-3)Gal = target: Gal(b1-3)GalNAc(b1-3)Gal
# Outline: as §1
binder,measurement,setting,value
B1,glycan array binding signal (z-score),[1],-0.93
same,glycan array binding signal (z-score),[2],0.432
same,glycan array binding signal (z-score),[3],0.125
same,glycan array binding signal (z-score),Fuc(a1-4)GlcNAc,0.482
same,glycan array binding signal (z-score),Fuc(b1-3)GlcNAc,-0.431
same,glycan array binding signal (z-score),Gal(a1-2)Gal,-0.174
same,glycan array binding signal (z-score),Gal(a1-3)Gal,-0.589
same,glycan array binding signal (z-score),Gal(a1-3)Gal(b1-3)GlcNAc,-0.117
same,glycan array binding signal (z-score),[4],0.037
same,glycan array binding signal (z-score),[5],0.667
same,glycan array binding signal (z-score),[6],-0.852
same,glycan array binding signal (z-score),[7],-0.644
same,glycan array binding signal (z-score),[8],0.025
same,glycan array binding signal (z-score),Gal(a1-3)Gal(b1-4)Glc,0.42
same,glycan array binding signal (z-score),Gal(a1-3)Gal(b1-4)GlcNAc,-0.284
same,glycan array binding signal (z-score),[9],0.891
same,glycan array binding signal (z-score),[10],-0.182
same,glycan array binding signal (z-score),[11],-0.067
same,glycan array binding signal (z-score),[12],-0.353
same,glycan array binding signal (z-score),[13],0.171
same,glycan array binding signal (z-score),[14],0.299
same,glycan array binding signal (z-score),Gal(a1-3)GalNAc,0.207
same,glycan array binding signal (z-score),[15],0.735
same,glycan array binding signal (z-score),[16],-0.352
same,glycan array binding signal (z-score),Gal(a1-4)Gal(b1-4)Glc,0.07
same,glycan array binding signal (z-score),Gal(a1-4)Gal(b1-4)GlcNAc,1.13
same,glycan array binding signal (z-score),[17],0.935
same,glycan array binding signal (z-score),[18],1.22
same,glycan array binding signal (z-score),Gal(a1-4)GlcNAc,-0.495
same,glycan array binding signal (z-score),Gal(a1-6)Glc,0.483
same,glycan array binding signal (z-score),Gal(b1-2)Gal,-0.28
same,glycan array binding signal (z-score),Gal(b1-3)Gal,0.077
same,glycan array binding signal (z-score),Gal(b1-3)Gal(b1-4)GlcNAc,0.677
same,glycan array binding signal (z-score),Gal(b1-3)GalNAc,-0.324
same,glycan array binding signal (z-score),[19],-0.503
same,glycan array binding signal (z-score),[20],0.227
same,glycan array binding signal (z-score),Gal(b1-3)GalNAc(b1-3)Gal,-1.46

# Part of the list above, tab-delimited:
binder	measurement	setting	value
B1	glycan array binding signal (z-score)	[1]	-0.93
same	glycan array binding signal (z-score)	Fuc(a1-4)GlcNAc	0.482
same	glycan array binding signal (z-score)	[5]	0.667
same	glycan array binding signal (z-score)	[14]	0.299
same	glycan array binding signal (z-score)	[16]	-0.352
same	glycan array binding signal (z-score)	Gal(a1-4)Gal(b1-4)Glc	0.07
same	glycan array binding signal (z-score)	Gal(a1-4)GlcNAc	-0.495
same	glycan array binding signal (z-score)	Gal(b1-3)GalNAc	-0.324
